Results as given in patent publication US20150292023A1, “Materials and Methods Related to NSAID Chemoprevention in Colorectal Cancer” (priority 2011, published 2015).
Some entries share one result that the patent states for a list of compounds.

Test system: Msh2^flox/floxVpC^+/+ (LS/HNPCC) mice
Test: Kaplan-Meier survival of LS/HNPCC mice treated with NSAIDs in diet
Assay type: in vivo, mouse
Settings: over a wide range of ASA and NO-ASA doses
Experimental: Cohorts of equivalent gender Msh2^flox/floxVpC^+/+ mice were treated with NSAIDs including ASA that were mixed with powdered diet and administered ad libitum. VpC^+/+ (Msh2^++) mice were similarly examined to control for potentially confounding effects of continuous Cre expression in the intestine. Kaplan-Meier survival analyses were generated for each NSAID treatment (FIG. 2).
A mouse model where exon 12 of Msh2 is flanked by LoxP recombination sites (Msh2^flox/flox) was generated. […] When considering the utility of this mouse model it is important to note that while modern day LS/HNPCC largely occurs in the colon, it was originally described as a gastric cancer.
The endpoint for the chemopreventive analysis of NSAIDs on mouse tumorigenesis is survival. Assessment of tumor kinetics, treatment regimes and pathological changes during tumor development constitute a correlative quantitative database.

Which increase in survival does the source give for “nitric oxide-donating acetylsalicylic acid [NO-ASA]” here?
The increase in survival was at most 20%.

Which increase in survival does the source give for `CC(=O)Oc1ccccc1C(=O)O` [ASA, Acetylsalicylic acid] here?
Its increase in survival is at most 20%.
